{
  "source": "patent EP0367040A1",
  "about": "“Compounds for the treatment of urinary incontinence” (Kabi Pharmacia AB, priority 1988, dated 1990)",
  "test_system": "rabbit urinary bladder",
  "experiment": "Inhibition of electrically induced contractions of isolated urinary bladder strips",
  "assay_type": "cell-based",
  "conditions": "Oryctolagus cuniculus, read-out: El.stim. rabbit urinary bladder IC50",
  "data": [
    {"smiles": "CCN(CC)CC#CCOC(=O)C(O)(c1ccccc1)C1CCCCC1", "note": "(stereo not shown) [Oxybutynin, 2-cyclohexyl-2-hydroxy-2-phenylacetic acid 4-(diethylamino)-2-butynyl ester, reference compound]", "values": [
      {"measurement": "IC50", "value": 2.9, "unit": "µM"}
    ]}
  ]
}
